Results are given in words; binding and its absence hold for the method and conditions named.
Biological target: T1, Mdb1 pT113 fluorescein-labelled phosphopeptide (S. pombe)
T1 sequence (peptide, fluorescein on the N-terminus; phosphothreonine at 113): GYGGVMTVPNTPQKPNLQ
Assay: fluorescence polarisation; fluorescein-labelled peptide at 200 nM, increasing concentrations of recombinant protein; room temperature; 25 mM HEPES pH 7.5, 150 mM NaCl, 1 mM EDTA, 0.25 mM TCEP, 0.02% Tween-20; one site-specific binding model; both purified

Question: For “Rad4-BRCT1,2 with both BRCT domains mutated (S. pombe) (domain or fragment)”, which binding is on record?
Answer: no binding

Source: PMC6175577, “BRCT domains of the DNA damage checkpoint proteins TOPBP1/Rad4 display distinct specificities for phosphopeptide ligands” (eLife, 2018)
